{"source": "PubChem BioAssay AID1224828 (NIAID, 2016)", "screen": "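Find genes required for NF-kappaB p65 moving into the nucleus after LPS in mouse macrophages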 (primary screen)", "cells": "mouse RAW264.7 G9 macrophage reporter cells (GFP-p65, Tnf promoter-mCherry)", "reagents": "siRNA pool against mouse genes, 100 nM", "timing": "2 days siRNA transfection, then 40 min LPS before fixation", "challenge": "LPS (Salmonella minnesota R595) at 10 ng/ml", "read-out": "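Microscopy ratio of nuclear to perinuclear-ring GFP-p65 signal, scaled to the plate median; gene score is the average of two replicate robust z-scores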", "reading the numbers": "p65 translocation robust z-score: higher = more nuclear NF-kappaB p65 after LPS than the plate median; nuclear/cytoplasmic p65 ratio: higher = more nuclear NF-kappaB p65", "hit rule": "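Active if robust z is above 3.3 (negative regulators) or below -1.56, the Tlr4 control median (positive regulators); activity score 50 or more; control wells not called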", "meaning of the calls": "active = hit (p65 shift raised or lowered); inactive = no clear change", "note": "The whole screen tested about 17,000 reagents; this is a random part of them. Of all reagents, 762 (4.5%) were called active. 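Active calls include both raised and lowered p65 entry, mostly lowered; wells with fewer than 50 cells lack a z-score.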 Raw values are not corrected between plates. A reagent listed more than once was tested more than once; the source does not tell the runs apart."}
{"gene": "Rhobtb3", "p65 translocation robust z-score": -0.99, "nuclear/cytoplasmic p65 ratio, rep 1": 1.42, "nuclear/cytoplasmic p65 ratio, rep 2": 1.33, "low cell count flag": "enough cells to score", "activity call": "inactive"}
{"gene": "Tmem38a", "p65 translocation robust z-score": 0.4, "nuclear/cytoplasmic p65 ratio, rep 1": 1.67, "nuclear/cytoplasmic p65 ratio, rep 2": 1.54, "low cell count flag": "enough cells to score", "activity call": "inactive"}
{"gene": "Gpr15", "p65 translocation robust z-score": 0.09, "nuclear/cytoplasmic p65 ratio, rep 1": 1.51, "nuclear/cytoplasmic p65 ratio, rep 2": 1.6, "low cell count flag": "enough cells to score", "activity call": "inactive"}
{"gene": "Pars2", "p65 translocation robust z-score": -1.85, "nuclear/cytoplasmic p65 ratio, rep 1": 1.43, "nuclear/cytoplasmic p65 ratio, rep 2": 1.39, "low cell count flag": "enough cells to score", "activity call": "active"}
{"gene": "Fabp9", "p65 translocation robust z-score": 3.16, "nuclear/cytoplasmic p65 ratio, rep 1": 2.12, "nuclear/cytoplasmic p65 ratio, rep 2": 1.84, "low cell count flag": "enough cells to score", "activity call": "inactive"}
{"gene": "Vmn1r220", "p65 translocation robust z-score": 0.54, "nuclear/cytoplasmic p65 ratio, rep 1": 1.48, "nuclear/cytoplasmic p65 ratio, rep 2": 1.27, "low cell count flag": "enough cells to score", "activity call": "inactive"}
{"gene": "Stxbp3", "p65 translocation robust z-score": 0.82, "nuclear/cytoplasmic p65 ratio, rep 1": 1.53, "nuclear/cytoplasmic p65 ratio, rep 2": 1.32, "low cell count flag": "enough cells to score", "activity call": "inactive"}
{"gene": "Ifna9", "p65 translocation robust z-score": 0.7, "nuclear/cytoplasmic p65 ratio, rep 1": 1.6, "nuclear/cytoplasmic p65 ratio, rep 2": 1.4, "low cell count flag": "enough cells to score", "activity call": "inactive"}
{"gene": "Prss40", "nuclear/cytoplasmic p65 ratio, rep 1": 1.44, "nuclear/cytoplasmic p65 ratio, rep 2": 1.12, "low cell count flag": "fewer than 50 cells per well; well left out of scoring", "activity call": "inactive"}
{"gene": "Atp6v1b1", "p65 translocation robust z-score": 0.64, "nuclear/cytoplasmic p65 ratio, rep 1": 1.82, "nuclear/cytoplasmic p65 ratio, rep 2": 1.61, "low cell count flag": "enough cells to score", "activity call": "inactive"}
{"gene": "Gjb6", "p65 translocation robust z-score": -1.11, "nuclear/cytoplasmic p65 ratio, rep 1": 1.23, "nuclear/cytoplasmic p65 ratio, rep 2": 1.28, "low cell count flag": "enough cells to score", "activity call": "inactive"}
{"gene": "Suz12", "p65 translocation robust z-score": 0.55, "nuclear/cytoplasmic p65 ratio, rep 1": 1.59, "nuclear/cytoplasmic p65 ratio, rep 2": 1.39, "low cell count flag": "enough cells to score", "activity call": "inactive"}
{"gene": "Barhl1", "p65 translocation robust z-score": -0.2, "nuclear/cytoplasmic p65 ratio, rep 1": 1.39, "nuclear/cytoplasmic p65 ratio, rep 2": 1.81, "low cell count flag": "enough cells to score", "activity call": "inactive"}
{"gene": "Foxj3", "p65 translocation robust z-score": -0.16, "nuclear/cytoplasmic p65 ratio, rep 1": 1.63, "nuclear/cytoplasmic p65 ratio, rep 2": 1.56, "low cell count flag": "enough cells to score", "activity call": "inactive"}
{"gene": "Thnsl2", "p65 translocation robust z-score": 1.05, "nuclear/cytoplasmic p65 ratio, rep 1": 1.57, "nuclear/cytoplasmic p65 ratio, rep 2": 1.35, "low cell count flag": "enough cells to score", "activity call": "inactive"}

Not a retest: 2 of the entries above.
{"gene": "Gjb6", "p65 translocation robust z-score": -1.11, "nuclear/cytoplasmic p65 ratio, rep 1": 1.23, "nuclear/cytoplasmic p65 ratio, rep 2": 1.28, "low cell count flag": "enough cells to score", "activity call": "inactive"}
{"gene": "Suz12", "p65 translocation robust z-score": 0.55, "nuclear/cytoplasmic p65 ratio, rep 1": 1.59, "nuclear/cytoplasmic p65 ratio, rep 2": 1.39, "low cell count flag": "enough cells to score", "activity call": "inactive"}

More results follow:
{"gene": "Relt", "p65 translocation robust z-score": -0.68, "nuclear/cytoplasmic p65 ratio, rep 1": 1.36, "nuclear/cytoplasmic p65 ratio, rep 2": 1.48, "low cell count flag": "enough cells to score", "activity call": "inactive"}
{"gene": "Gal3st2", "nuclear/cytoplasmic p65 ratio, rep 1": 1.28, "nuclear/cytoplasmic p65 ratio, rep 2": 1.18, "low cell count flag": "fewer than 50 cells per well; well left out of scoring", "activity call": "inactive"}
{"gene": "Abca12", "p65 translocation robust z-score": 1.46, "nuclear/cytoplasmic p65 ratio, rep 1": 1.39, "nuclear/cytoplasmic p65 ratio, rep 2": 1.42, "low cell count flag": "enough cells to score", "activity call": "inactive"}
{"gene": "Picalm", "p65 translocation robust z-score": 2.02, "nuclear/cytoplasmic p65 ratio, rep 1": 1.75, "nuclear/cytoplasmic p65 ratio, rep 2": 1.7, "low cell count flag": "enough cells to score", "activity call": "inactive"}
{"gene": "Cinp", "p65 translocation robust z-score": -1.82, "nuclear/cytoplasmic p65 ratio, rep 1": 1.51, "nuclear/cytoplasmic p65 ratio, rep 2": 1.16, "low cell count flag": "enough cells to score", "activity call": "active"}
{"gene": "Cinp", "nuclear/cytoplasmic p65 ratio, rep 1": 1.02, "nuclear/cytoplasmic p65 ratio, rep 2": 0.996, "low cell count flag": "fewer than 50 cells per well; well left out of scoring", "activity call": "inactive"}
{"gene": "Orc5", "p65 translocation robust z-score": -2.29, "nuclear/cytoplasmic p65 ratio, rep 1": 1.1, "nuclear/cytoplasmic p65 ratio, rep 2": 1.01, "low cell count flag": "enough cells to score", "activity call": "active"}
{"gene": "Mb", "p65 translocation robust z-score": 1.33, "nuclear/cytoplasmic p65 ratio, rep 1": 1.84, "nuclear/cytoplasmic p65 ratio, rep 2": 1.81, "low cell count flag": "enough cells to score", "activity call": "inactive"}
{"gene": "Nudt14", "p65 translocation robust z-score": -0.84, "nuclear/cytoplasmic p65 ratio, rep 1": 1.65, "nuclear/cytoplasmic p65 ratio, rep 2": 1.35, "low cell count flag": "enough cells to score", "activity call": "inactive"}
{"gene": "Hsd17b7", "p65 translocation robust z-score": -0.09, "nuclear/cytoplasmic p65 ratio, rep 1": 1.43, "nuclear/cytoplasmic p65 ratio, rep 2": 1.36, "low cell count flag": "enough cells to score", "activity call": "inactive"}
{"gene": "Wasf1", "p65 translocation robust z-score": 0.2, "nuclear/cytoplasmic p65 ratio, rep 1": 1.6, "nuclear/cytoplasmic p65 ratio, rep 2": 1.57, "low cell count flag": "enough cells to score", "activity call": "inactive"}
{"gene": "Ssr2", "p65 translocation robust z-score": -0.01, "nuclear/cytoplasmic p65 ratio, rep 1": 1.53, "nuclear/cytoplasmic p65 ratio, rep 2": 1.57, "low cell count flag": "enough cells to score", "activity call": "inactive"}
